# Screening data

Source: PubChem BioAssay AID912 (NCATS, 2007).

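Uptake of anthrax lethal toxin into cultured cells, read by FRET (460/530 nm ratio) and reported from the 460 nm channel; the cell line is not named here.
Each compound was tested as a concentration series from about 0.0005 to 40 µM.
The number is the fitted AC50 of the 460 nm signal alone; lower values mean a more potent effect. A falling signal goes with compounds filed as inhibitors or cytotoxic, a rising one with activators or fluorescent compounds (inferred from the filed classes).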

Values are in nM.
Common to all entries: measured here: 460 nm channel.
Part of the compounds only, not a random draw; the main read-out is not listed here.
Potencies fitted to partial, single-point or poorly fitting curves are rough.
The first word of each remark tells which way the curve ran; it can be opposite to the aim of the assay.

{"structure": "CCOC(=O)c1c(-c2ccco2)csc1N", "AC50 (nM)": "15848", "remark": "falling, single point"}
{"structure": "c1ccc(CNc2nc3ccccc3[nH]2)cc1", "AC50 (nM)": "5012", "remark": "falling, full curve"}
{"structure": "COc1ccccc1-c1cc(N)n(S(=O)(=O)c2ccc(F)c(C)c2)n1", "AC50 (nM)": "12589", "remark": "falling, partial curve"}
{"structure": "Cc1ccc(N2CCN(c3ccc(C)cc3)C2c2ccncc2)cc1", "AC50 (nM)": "10000", "remark": "falling, partial curve, poor fit"}
{"structure": "COCCNc1ncnc2ccc(-c3c(C)noc3C)cc12", "AC50 (nM)": "316.2", "remark": "falling, partial curve"}
{"structure": "C[C@@H]1C[C@H](OC(=O)c2ccccc2O)CC(C)(C)C1", "AC50 (nM)": "0.631", "remark": "falling, full curve, poor fit"}
{"structure": "CCCBr", "AC50 (nM)": "12589", "remark": "rising, single point"}
{"structure": "O=S(=O)(NCCNC/C=C\\c1ccc(Br)cc1)c1cccc2cnccc12", "AC50 (nM)": "19952", "remark": "falling, partial curve, poor fit"}
{"structure": "Nc1nc2c(s1)CCc1c-2cnn1-c1ccccc1", "AC50 (nM)": "10000", "remark": "falling, partial curve"}
{"structure": "COCCn1c(=O)c(-c2cccc(Cl)c2)nc2cncnc21", "AC50 (nM)": "12589", "remark": "rising, single point"}
{"structure": "Cc1ccc(NC(=O)CS(=O)CC(=O)Nc2ccc3c(c2)OCO3)cc1Cl", "stereo": "stereo not drawn", "AC50 (nM)": "39.81", "remark": "falling, full curve, poor fit"}
{"structure": "CN1CCN(c2ncc3nc(-c4ccc(Cl)cc4)c(=O)n(Cc4cccs4)c3n2)CC1", "AC50 (nM)": "1000", "remark": "rising, full curve"}
{"structure": "Cc1nc(N2CCN(Cc3nc4ccccc4[nH]3)CC2)c2oc3ccccc3c2n1", "AC50 (nM)": "25118", "remark": "rising, single point"}
{"structure": "Cc1cc(OC(=O)N2CCOCC2)cc(C)c1Cl", "AC50 (nM)": "1000", "remark": "falling, full curve, poor fit"}
{"structure": "O=c1c(-c2ccc(F)cc2)nc2cnc(N3CCOCC3)nc2n1C[C@H]1CCCO1", "AC50 (nM)": "12589", "remark": "rising, partial curve"}
{"structure": "CCCn1c(N)c(C(c2ccc(C(=O)OC)cc2)N2CCN(c3ccccc3)CC2)c(=O)[nH]c1=O", "stereo": "stereo not drawn", "AC50 (nM)": "10000", "remark": "rising, single point"}
{"structure": "COCCNC(=O)c1ccc(Cn2c(=S)[nH]c3cc4c(cc3c2=O)OCO4)cc1", "AC50 (nM)": "5012", "remark": "rising, single point"}
{"structure": "CC1CCCN(c2oc(-c3cccc4ccccc34)nc2C#N)C1", "stereo": "stereo not drawn", "AC50 (nM)": "25118", "remark": "rising, single point"}
{"structure": "CSc1nc(N2CCN(CCO)CC2)c2sc3nc(-c4ccco4)c4c(c3c2n1)CCC4", "AC50 (nM)": "10000", "remark": "rising, partial curve"}
{"structure": "CCCN1CCc2cc(O)cc3c2[C@H]1Cc1ccc(O)c(O)c1-3", "AC50 (nM)": "3981", "remark": "falling, partial curve"}
{"structure": "COc1cnn(-c2ccccc2)c(=O)c1N(C)C", "AC50 (nM)": "631", "remark": "falling, partial curve, poor fit"}
{"structure": "Cc1cc(=O)[nH]c(SCc2cccc(Br)c2)n1", "AC50 (nM)": "398.1", "remark": "falling, full curve"}
{"structure": "CCOC(=O)C(NC(=O)c1ccc(OC)cc1)(N1CCOCC1)C(F)(F)F", "stereo": "stereo not drawn", "AC50 (nM)": "2512", "remark": "falling, partial curve, poor fit"}
{"structure": "COc1ccc(OC)c(-n2nnnc2SCC(=O)Nc2ccc3c(c2)OCCO3)c1", "AC50 (nM)": "3981", "remark": "falling, full curve, poor fit"}
{"structure": "CC(C)[C@]1(NC(=O)[C@H]2C=C3c4cccc5[nH]cc(c45)C[C@H]3N(C)C2)O[C@@]2(O)[C@H]3CCCN3C(=O)[C@H](Cc3ccccc3)N2C1=O", "AC50 (nM)": "12589", "remark": "falling, single point"}
{"structure": "O=C(Nc1ccc2nn(-c3ccccc3)nc2c1)c1cccs1", "AC50 (nM)": "316.2", "remark": "falling, full curve, poor fit"}
{"structure": "CC(=O)c1cc2c(O)c(O)ccc2o1", "AC50 (nM)": "7943", "remark": "rising, partial curve"}
{"structure": "O=C(C1CCCN(S(=O)(=O)c2cccc3cccnc23)C1)N1CCN(c2ccc(F)cc2)CC1", "stereo": "stereo not drawn", "AC50 (nM)": "25118", "remark": "falling, single point"}